Source: paper PMC7862700
Only a part is listed here, and it is no random draw. At the low end of the ranking, values are background and their order means little.

molecular target: SPI1 (UniProt P17947); assay: DAPPL (digital affinity profiling via proximity ligation, sequencing); settings: 10 mM Tris-HCl pH 7.5, 50 mM NaCl, 1 mM DTT, 4% glycerol, room temperature, 30 min; GST-TFs on glutathione beads, 16-mer random dsDNA library, 0.1% …; high values mean tight binding; double strand, one strand shown; scale: fold enrichment (6-mer frequency, TF over GST control)

Sequence	binding signal
AGTGCC	1.32
TTCTAT	1.36
TCGTCG	0.878
ACGAGC	0.987
ACTCAG	0.978
GTCTAG	0.88
ACTCGA	1.26
TCCGAG	0.897
GGATAA	0.757
ACGCGT	0.922
AGTACG	1.02
AGCATC	0.962
GCTAGA	1
GCATAC	0.956
AGCGCT	0.982
AGGTTC	0.831
CACCGG	1.08
AATACG	1.32
AAGGTC	0.864
CATCCA	0.938

Sequence	binding signal
CACGTT	1.3
AGTAAC	1.07
TTGGAA	0.972
GCCGGA	0.935
GATTAA	0.965
TCGCAT	0.992
TTGAAA	1.18
TAAGCA	0.986
TAAGTC	0.873
CTATCA	1.01
TTCGCA	1.32
AAACTC	1.13
ATAAGT	1
GTAGAA	1.01
CGCCAA	1.04
ACGTCT	1.15
CTTGTA	1.39
TCTCTT	1.32
TGAAGA	0.955

Copied from the list:
Entry for ACGTCT under binding signal: 1.15
Entry for TCGCAT under binding signal: 0.992
Entry for AGTAAC under binding signal: 1.07
